Data taken from ChEMBL document CHEMBL1649361, “Pyridone and tetramic acid alkaloids from the spider pathogenic fungus Torrubiella sp. BCC 2165” (J Nat Prod, 2010).

Tested on: MCF7
Test: Cytotoxicity against human MCF7 cells by resazurin microplate assay
Format: functional, cell-based
How it was run: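 Resazurin microplate assay on human cancer lines: KB (oral epidermoid carcinoma), MCF-7 (breast cancer) and NCI-H187 (small-cell lung cancer). IC50 values were read from the assay, with doxorubicin hydrochloride as the reference standard.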

With COc1cccc2c1C(=O)c1c(O)c3c(c(O)c1C2=O)C[C@@](O)(C(=O)CO)C[C@@H]3O[C@H]1C[C@H](N)[C@H](O)[C@H](C)O1 [DOXORUBICIN] the IC50 was 2300 nM.
